# Laboratory results: publication PMC3422239
# Changes are numbered by the printed parent chain. Results are given in words; binding and its absence hold for the method and conditions named. A result given as binding can be weak or reduced; the word gives no strength. For some assays here: Where a sequence is shown, tags or fusion partners need not be part of it.
# Tests used:
# GFP-IRS2-S556A (mouse) = molecular target: T1, GFP-IRS2-S556A (mouse) (UniProt P81122); test: far-Western, overlay or dot blot; GFP-tagged IRS-2 pulled down with GFP-Trap from HEK293 or Flp-In HEK293 lysates, SDS-PAGE, nitrocellulose; membrane incubated overnight at 4°C with 14-3-3ζ-HRP, ECL; cells serum starved, IGF-1, or PI-103, wortmannin or Akti-1/2 before IGF-1; both purified
# T1 sequence: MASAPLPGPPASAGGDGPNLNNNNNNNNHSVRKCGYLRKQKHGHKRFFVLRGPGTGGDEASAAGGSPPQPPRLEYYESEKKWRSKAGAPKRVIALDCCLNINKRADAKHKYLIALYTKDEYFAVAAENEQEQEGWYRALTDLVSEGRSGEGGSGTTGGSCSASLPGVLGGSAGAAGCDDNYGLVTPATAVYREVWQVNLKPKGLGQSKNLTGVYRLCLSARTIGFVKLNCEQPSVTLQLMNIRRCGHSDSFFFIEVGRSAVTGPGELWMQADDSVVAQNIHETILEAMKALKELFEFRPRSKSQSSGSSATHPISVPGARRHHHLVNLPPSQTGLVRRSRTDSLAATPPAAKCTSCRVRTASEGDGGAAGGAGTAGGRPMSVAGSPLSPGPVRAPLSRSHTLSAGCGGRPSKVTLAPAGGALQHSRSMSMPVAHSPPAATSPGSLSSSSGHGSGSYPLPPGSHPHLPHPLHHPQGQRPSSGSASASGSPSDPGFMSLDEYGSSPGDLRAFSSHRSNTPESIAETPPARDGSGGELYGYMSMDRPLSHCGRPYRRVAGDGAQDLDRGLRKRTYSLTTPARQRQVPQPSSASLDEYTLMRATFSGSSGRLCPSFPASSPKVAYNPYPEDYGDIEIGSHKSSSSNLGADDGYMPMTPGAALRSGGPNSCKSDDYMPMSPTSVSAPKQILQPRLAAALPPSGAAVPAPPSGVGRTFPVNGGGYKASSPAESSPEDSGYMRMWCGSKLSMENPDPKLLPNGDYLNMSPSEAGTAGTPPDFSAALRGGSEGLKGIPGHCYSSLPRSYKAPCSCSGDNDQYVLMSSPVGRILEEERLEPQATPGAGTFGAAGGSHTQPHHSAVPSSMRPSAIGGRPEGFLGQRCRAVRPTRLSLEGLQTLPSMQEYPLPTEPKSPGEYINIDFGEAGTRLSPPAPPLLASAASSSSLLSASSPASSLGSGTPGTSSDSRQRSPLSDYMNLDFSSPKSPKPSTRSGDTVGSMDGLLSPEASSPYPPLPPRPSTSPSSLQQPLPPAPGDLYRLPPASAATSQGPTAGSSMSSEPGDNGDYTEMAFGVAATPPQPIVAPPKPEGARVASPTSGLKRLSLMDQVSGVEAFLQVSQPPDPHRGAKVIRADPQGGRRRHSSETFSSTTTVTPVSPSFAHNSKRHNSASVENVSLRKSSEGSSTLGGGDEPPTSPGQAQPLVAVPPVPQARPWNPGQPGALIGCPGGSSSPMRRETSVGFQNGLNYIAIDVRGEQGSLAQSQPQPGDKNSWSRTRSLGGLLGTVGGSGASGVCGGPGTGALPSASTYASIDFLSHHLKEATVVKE
# [1] = molecular target: T2, endogenous IRS-2 of mouse liver (mouse (endogenous in C57Bl/6 liver)) (UniProt P81122); test: far-Western, overlay or dot blot; IRS-2 immunoprecipitated with IRS-2 antibody from 500 µg mouse liver protein, SDS-PAGE, nitrocellulose; overlay with 14-3-3ζ-HRP; mice fasted, insulin injected (10 or 30 min) or refed 4 hours; both purified
# T2 sequence: T1 sequence with A556S
substance,measurement,setting,value
Recombinant human 14-3-3ζ-HRP,binding,GFP-IRS2-S556A (mouse),binds
same,binding,[1],binds
